In PubChem BioAssay AID1347423 (Functional Genomics Laboratory (NCATS/FGL), 2020):
Among all 52,000 sequences or so, about 210 (0.4%) were called active.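 Rule for the calls: active = gene whose silencing raises cell survival under the drug, median off-target-corrected z-score across its silencing RNAs 2 or more; inactive = the rest.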 The list shows a part of the results.

Assay: Resistance to Poly (ADP-Ribose) Polymerase inhibitor: Gene Identification via Genome-wide siRNA Screen
Details: mouse BRCA2 R2336H ES cells, olaparib, CellTiter-Glo viability; stronger effect = higher value
Outline: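 Mouse BRCA2 R2336H ES cells were reverse-transfected with siRNA (20 nM final), treated at 48 h with 500 nM olaparib, and read by CellTiter-Glo after 72 h. Scores: MAD-based z per siRNA, median per gene, seed off-target correction.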

Sequence	z-score
GGGCAAGAGGAUUAUGACATT against Cdc42	inactive: -1.87
GCUACAUGAUGUUCAUACUTT against Srpx	inactive: 0.806
GAGAUGAUGGAUGCCCAGCTT against Ndufb7	inactive: -0.631
GGAACGAUCGAAACAAGAATT against Rarg	active: 3.59
GCACUUCGCCCACUGUUUATT against 1700029B21Rik	inactive: 1.4
GUACUCUUUUUCAUCUUCCTT against Olfr1010	inactive: -1.35
GGGUCAAUUGCCAAAACUCTT against Arhgdia	inactive: 0.344
GGCAAUCCAGACGAUAUCUTT against Abca1	inactive: 4.5
GGCCUGGAGGACUUUAUAATT against Cyp2a4	inactive: -2.09
GCAGGAGACGCAAUAGAAATT against Dte	inactive: -0.373
GGUGUCACCAAGAAUGAUGTT against Ceacam10	inactive: -0.636
GCAUGCUUACGGUCUCCAATT against Ccl1	inactive: -0.775
GGCGAAUCUCAUUAGGGAGTT against Ndor1	inactive: 0.378
CCUGUGAAAAUUUUAGUGCTT against Pms1	inactive: 0.131
CCUGAGAUUGGGAAAUUCUTT against D230014K01Rik	inactive: 0.781
CCCUGGUAUUGGUUUCACATT against 0610007A15Rik	inactive: 1.03
GGAAUGGUAUUUCUAUUGUTT against Plek	inactive: 0.00705
AAGGGUGCCUUAAAAAAACTT against Olfr136	inactive: 0.526
GGGAACAAGAUGCUCUGUGTT against Ng23-pending	inactive: 1.07
GCUGCGAUAUUUAAUUCAGTT against 2410193C02Rik	inactive: 1.35
GCAUAUGUGUGUUUAACCUTT against Rdh6	inactive: -0.323
GCGGUACAACCAAAAAGACTT against AI507495	inactive: -1.62
GGCGGAUUCAGUCAGCUUUTT against Trim47	inactive: -0.125
GGAUGUAAAAGAGACUGUGTT against Olfr1176	inactive: -0.389
GGACAAUGUGCAUUCUCACTT against D1Ertd251e	inactive: 0.654
GGCGAAGAAGACAGAAAAGTT against 1700012L04Rik	inactive: 0.453
GCAGUAGAGGAGCAAUAUUTT against 1810057P16Rik	inactive: 0.921
GGAACAUUUGAAGUGCAAATT against Ilf2	inactive: 0.157
GGAUCAAUGCACCUUCCAATT against Gpr85	inactive: -0.724

Some values from the list.
z-score with CCUGUGAAAAUUUUAGUGCTT against Pms1 reads inactive: 0.131
z-score with GGGAACAAGAUGCUCUGUGTT against Ng23-pending reads inactive: 1.07
